Data source: PubChem BioAssay AID686943 (Drosophila RNAi Screening Center, 2013)
In all, the deposit lists about 23,000 reagents; shown is an unselected part of those with a known target gene and a result. 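Extra replicates exist only for a retested subset of genes; insulin dose and duration not given; both raised and lowered dpERK matter.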 The numbers tell different reagents against one gene apart. Names joined by + are all predicted targets of the reagent. Not all columns of the deposit are shown. Reagent sequences are not shown. Not given: the amount of reagent, the time to read-out.

- Test: 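Fly genes whose loss alters ERK activation after insulin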 (primary screen)
- Cell system: Drosophila S2R+ haemocyte-like cells expressing YFP-tagged ERK (Rolled)
- Reagent: long dsRNA against Drosophila genes
- Conditions: insulin stimulation versus unstimulated cells; dose and duration not given
- Measurement: 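Per-plate z-scores of phospho-ERK immunostaining normalised to YFP-tagged ERK, measured with and without insulin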
- Direction: replicate 1, z-score of dpERK with insulin and replicate 2, z-score of dpERK with insulin: higher = more active ERK per ERK-YFP after insulin

CG2861 | replicate 1, z-score of dpERK with insulin: 0.21; replicate 2, z-score of dpERK with insulin: -0.18
CG3038 | replicate 1, z-score of dpERK with insulin: -1.9; replicate 2, z-score of dpERK with insulin: 0.45
cnir (cornichon related) | replicate 1, z-score of dpERK with insulin: 0.34; replicate 2, z-score of dpERK with insulin: -0.06
Rad17 | replicate 1, z-score of dpERK with insulin: -0.09; replicate 2, z-score of dpERK with insulin: 0.5
CG14689 | replicate 1, z-score of dpERK with insulin: 0.42; replicate 2, z-score of dpERK with insulin: 0.23
NT1 (Neurotrophin 1) #1 | replicate 1, z-score of dpERK with insulin: -0.63; replicate 2, z-score of dpERK with insulin: -0.34
NT1 (Neurotrophin 1) #2 | replicate 1, z-score of dpERK with insulin: -2.14; replicate 2, z-score of dpERK with insulin: 0.31
CG4570 | replicate 1, z-score of dpERK with insulin: 2.42; replicate 2, z-score of dpERK with insulin: 1.57
Sid (Stress induced DNase) | replicate 1, z-score of dpERK with insulin: -0.59; replicate 2, z-score of dpERK with insulin: 0
tw (twisted) | replicate 1, z-score of dpERK with insulin: -0.27; replicate 2, z-score of dpERK with insulin: -0.82
CG17321 | replicate 1, z-score of dpERK with insulin: 0.47; replicate 2, z-score of dpERK with insulin: 0.6
CG42557 + CG42558 #1 | replicate 1, z-score of dpERK with insulin: -0.09; replicate 2, z-score of dpERK with insulin: 0.76
CG42557 + CG42558 #2 | replicate 1, z-score of dpERK with insulin: -0.16; replicate 2, z-score of dpERK with insulin: -0.35
eIF4E7 (eukaryotic translation initiation factor 4E7) #1 | replicate 1, z-score of dpERK with insulin: 0.39; replicate 2, z-score of dpERK with insulin: 0.53
eIF4E7 (eukaryotic translation initiation factor 4E7) #2 | replicate 1, z-score of dpERK with insulin: -0.45; replicate 2, z-score of dpERK with insulin: -0.39
Sgs5 (Salivary gland secretion 5) | replicate 1, z-score of dpERK with insulin: 0.98; replicate 2, z-score of dpERK with insulin: 0.71
CR17567 (retired record) #1 | replicate 1, z-score of dpERK with insulin: -0.14; replicate 2, z-score of dpERK with insulin: 0.28
CR17567 (retired record) #2 | replicate 1, z-score of dpERK with insulin: 0.21; replicate 2, z-score of dpERK with insulin: 0.29
thetaTry (thetaTrypsin) | replicate 1, z-score of dpERK with insulin: -0.16; replicate 2, z-score of dpERK with insulin: 0.6
CG17754 | replicate 1, z-score of dpERK with insulin: 0.77; replicate 2, z-score of dpERK with insulin: 0.3
Npl4 (Nuclear protein localization 4) #1 | replicate 1, z-score of dpERK with insulin: -1.04; replicate 2, z-score of dpERK with insulin: 0.68
Npl4 (Nuclear protein localization 4) #2 | replicate 1, z-score of dpERK with insulin: -0.18; replicate 2, z-score of dpERK with insulin: -0.3

2 of these entries, set out differently.
{"gene knocked down":"thetaTry (thetaTrypsin)","reagent no.":1,"replicate 1, z-score of dpERK with insulin":-0.16,"replicate 2, z-score of dpERK with insulin":0.6}
{"gene knocked down":"CG17754","reagent no.":1,"replicate 1, z-score of dpERK with insulin":0.77,"replicate 2, z-score of dpERK with insulin":0.3}
